No constants are given. Whether binding was seen depends on the method and setting. Binding seen in cells or lysates may run through a third protein. Some entries that bind do so weakly or less than the wild type. For part of these data: Tags and fused reporters may be left off the sequences shown.
Key:
[1] = target: GFP-nsp8 (SARS-CoV-2 nonstructural protein 8) (SARS-CoV-2) (UniProt P0DTD1); assay: co-IP
[2] = target: nsp8 expressed from the Spike-deleted SARS-CoV-2 replicon (SARS-CoV-2) (UniProt P0DTD1); assay: cross-linking + co-IP

Binder	binding [1]	binding [2]
full-length GST-MDA5 (protein, UniProt Q9BYX4 1-1025) MSNGYSTDENFRYLISCFRARVKMYIQVEPVLDYLTFLPAEVKEQIQRTVATSGNMQAVELLLSTLEKGVWHLGWTREFVEALRRTGSPLAARYMNPELTDLPSPSFENAHDEYLQLLNLLQPTLVDKLLVRDVLDKCMEEELLTIEDRNRIAAAENNGNESGVRELLKRIVQKENWFSAFLNVLRQTGNNELVQELTGSDCSESNAEIENLSQVDGPQVEEQLLSTTVQPNLEKEVWGMENNSSESSFADSSVVSESDTSLAEGSVSCLDESLGHNSNMGSDSGTMGSDSDEENVAARASPEPELQLRPYQMEVAQPALEGKNIIICLPTGSGKTRVAVYIAKDHLDKKKKASEPGKVIVLVNKVLLVEQLFRKEFQPFLKKWYRVIGLSGDTQLKISFPEVVKSCDIIISTAQILENSLLNLENGEDAGVQLSDFSLIIIDECHHTNKEAVYNNIMRHYLMQKLKNNRLKKENKPVIPLPQILGLTASPGVGGATKQAKAEEHILKLCANLDAFTIKTVKENLDQLKNQIQEPCKKFAIADATREDPFKEKLLEIMTRIQTYCQMSPMSDFGTQPYEQWAIQMEKKAAKEGNRKERVCAEHLRKYNEALQINDTIRMIDAYTHLETFYNEEKDKKFAVIEDDSDEGGDDEYCDGDEDEDDLKKPLKLDETDRFLMTLFFENNKMLKRLAENPEYENEKLTKLRNTIMEQYTRTEESARGIIFTKTRQSAYALSQWITENEKFAEVGVKAHHLIGAGHSSEFKPMTQNEQKEVISKFRTGKINLLIATTVAEEGLDIKECNIVIRYGLVTNEIAMVQARGRARADESTYVLVAHSGSGVIEHETVNDFREKMMYKAIHCVQNMKPEEYAHKILELQMQSIMEKKMKTKRNIAKHYKNNPSLITFLCKNCSVLACSGEDIHVIEKMHHVNMTPEFKELYIVRENKALQKKCADYQINGEIICKCGQAWGTMMVHKGLDLPCLKIRNFVVVFKNNSTKKQYKKWVELPITFPNLDYSECCLFSDED	binds	–
endogenous MDA5 (protein, UniProt Q9BYX4 1-1025) MSNGYSTDENFRYLISCFRARVKMYIQVEPVLDYLTFLPAEVKEQIQRTVATSGNMQAVELLLSTLEKGVWHLGWTREFVEALRRTGSPLAARYMNPELTDLPSPSFENAHDEYLQLLNLLQPTLVDKLLVRDVLDKCMEEELLTIEDRNRIAAAENNGNESGVRELLKRIVQKENWFSAFLNVLRQTGNNELVQELTGSDCSESNAEIENLSQVDGPQVEEQLLSTTVQPNLEKEVWGMENNSSESSFADSSVVSESDTSLAEGSVSCLDESLGHNSNMGSDSGTMGSDSDEENVAARASPEPELQLRPYQMEVAQPALEGKNIIICLPTGSGKTRVAVYIAKDHLDKKKKASEPGKVIVLVNKVLLVEQLFRKEFQPFLKKWYRVIGLSGDTQLKISFPEVVKSCDIIISTAQILENSLLNLENGEDAGVQLSDFSLIIIDECHHTNKEAVYNNIMRHYLMQKLKNNRLKKENKPVIPLPQILGLTASPGVGGATKQAKAEEHILKLCANLDAFTIKTVKENLDQLKNQIQEPCKKFAIADATREDPFKEKLLEIMTRIQTYCQMSPMSDFGTQPYEQWAIQMEKKAAKEGNRKERVCAEHLRKYNEALQINDTIRMIDAYTHLETFYNEEKDKKFAVIEDDSDEGGDDEYCDGDEDEDDLKKPLKLDETDRFLMTLFFENNKMLKRLAENPEYENEKLTKLRNTIMEQYTRTEESARGIIFTKTRQSAYALSQWITENEKFAEVGVKAHHLIGAGHSSEFKPMTQNEQKEVISKFRTGKINLLIATTVAEEGLDIKECNIVIRYGLVTNEIAMVQARGRARADESTYVLVAHSGSGVIEHETVNDFREKMMYKAIHCVQNMKPEEYAHKILELQMQSIMEKKMKTKRNIAKHYKNNPSLITFLCKNCSVLACSGEDIHVIEKMHHVNMTPEFKELYIVRENKALQKKCADYQINGEIICKCGQAWGTMMVHKGLDLPCLKIRNFVVVFKNNSTKKQYKKWVELPITFPNLDYSECCLFSDED	–	binds
HA-TRIM4 (enzyme, UniProt Q9C037 1-500) MEAEDIQEELTCPICLDYFQDPVSIECGHNFCRGCLHRNWAPGGGPFPCPECRHPSAPAALRPNWALARLTEKTQRRRLGPVPPGLCGRHWEPLRLFCEDDQRPVCLVCRESQEHQTHAMAPIDEAFESYRTGNFDIHVDEWKRRLIRLLLYHFKQEEKLLKSQRNLVAKMKKVMHLQDVEVKNATQWKDKIKSQRMRISTEFSKLHNFLVEEEDLFLQRLNKEEEETKKKLNENTLKLNQTIASLKKLILEVGEKSQAPTLELLQNPKEVLTRSEIQDVNYSLEAVKVKTVCQIPLMKEMLKRFQVAVNLAEDTAHPKLVFSQEGRYVKNTASASSWPVFSSAWNYFAGWRNPQKTAFVERFQHLPCVLGKNVFTSGKHYWEVESRDSLEVAVGVCREDVMGITDRSKMSPDVGIWAIYWSAAGYWPLIGFPGTPTQQEPALHRVGVYLDRGTGNVSFYSAVDGVHLHTFSCSSVSRLRPFFWLSPLASLVIPPVTDRK	binds	–

Reference: article PMC10681309
